Values from PubChem BioAssay AID686938 (Drosophila RNAi Screening Center, 2013)
In all, the deposit lists about 23,000 reagents; shown is a random part of those that have a named target and a result. In the full data, 75 (0.33%) were called active. 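Raw plate signals without normalisation; calls rest on plate z-scores that were not deposited; ratio present for only 364 wells.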 Reagent sequences are not shown. The record does not give: the dose of the treatment.

Test: 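Knock-downs reducing store-operated calcium influx in Drosophila cells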 (primary screen)
Cell system: Drosophila S2R+ cells
Knock-down reagent: long dsRNA against Drosophila genes, about 0.25 µg dsRNA per well, roughly 10,000 cells
Time to read-out: 5 days of knock-down before the calcium assay
Conditions: thapsigargin (SERCA pump blocker) to empty calcium stores; entry signal taken 4 min after adding it
Measured: 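Duplicate raw fluo-4 intensities per well from a plate reader, at rest and four minutes after thapsigargin emptied calcium stores; entry-to-rest ratio filled for only some wells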
Reading the numbers: calcium entry signal: higher = stronger calcium signal after store depletion; resting calcium signal: higher = higher resting calcium signal
Call rule: 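Called when the plate z-score of the entry-to-rest ratio, mean of duplicates, falls below −3; wells with low overall dye signal (Fmax z below −2) or more than five off-targets excluded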
Calls: active = strongly reduced calcium entry; inactive = no strong reduction

gene knocked down | DRSC id | calcium entry signal, replicate 1 (fluorescence units) | calcium entry signal, replicate 2 (fluorescence units) | resting calcium signal, replicate 1 (fluorescence units) | resting calcium signal, replicate 2 (fluorescence units) | activity call
CG4972 (GeneID 34388) | DRSC02798 | 2.98e7 | 4.04e7 | 1.44e7 | 1.74e7 | inactive
yellow-e (GeneID 41653) | DRSC12966 | 2.85e7 | 5.04e7 | 1.56e7 | 2.24e7 | inactive
yellow-e (GeneID 41653) | DRSC16563 | 3.28e7 | 6.10e7 | 1.59e7 | 7.17e7 | inactive
CG32628 (retired record) (GeneID 318129) | DRSC19405 | 4.70e7 | 3.19e7 | 2.27e7 | 1.71e7 | inactive
CG1532 (GeneID 33076) | DRSC20516 | 4.13e7 | 4.37e7 | 1.99e7 | 1.97e7 | inactive
cv-c (GeneID 41749) | DRSC14969 | 2.51e7 | 3.52e7 | 1.24e7 | 5.10e7 | inactive
cv-c (GeneID 41749) | DRSC14970 | 2.19e7 | 2.53e7 | 1.18e7 | 4.22e7 | inactive
cv-c (GeneID 41749) | DRSC14971 | 2.15e7 | 2.61e7 | 1.15e7 | 3.95e7 | inactive
cv-c (GeneID 41749) | DRSC14972 | 2.46e7 | 6.11e7 | 1.27e7 | 9.16e7 | inactive
cv-c (GeneID 41749) | DRSC14973 | 2.60e7 | 4.91e7 | 1.35e7 | 7.41e7 | inactive
cv-c (GeneID 41749) | DRSC16428 | 2.63e7 | 3.07e7 | 1.35e7 | 4.85e7 | inactive
cv-c (GeneID 41749) | DRSC23199 | 4.22e7 | 2.59e7 | 2.09e7 | 1.29e7 | inactive
CG43349 (GeneID 12797873) | DRSC00039 | 3.14e7 | 4.21e7 | 1.69e7 | 1.93e7 | inactive
Dbp21E2 (GeneID 33254) | DRSC00616 | 4.37e7 | – | 2.28e7 | – | inactive
Max (GeneID 40095) | DRSC11218 | 3.97e7 | 4.33e7 | 1.83e7 | 2.79e7 | inactive
Gfrl (GeneID 3346162) | DRSC15196 | 3.77e7 | 4.18e7 | 4.54e7 | 1.86e7 | inactive
Gfrl (GeneID 3346162) | DRSC15197 | 4.03e7 | 3.73e7 | 2.07e7 | 1.74e7 | inactive
Gfrl (GeneID 3346162) | DRSC15199 | 4.05e7 | 4.14e7 | 4.58e7 | 1.88e7 | inactive
Gfrl (GeneID 3346162) | DRSC15565 | 3.95e7 | 3.60e7 | 2.07e7 | 1.65e7 | inactive
Gfrl (GeneID 3346162) | DRSC15719 | 3.49e7 | 4.16e7 | 4.45e7 | 1.76e7 | inactive
Ir40a (GeneID 35449) | DRSC03732 | 3.81e7 | 5.21e7 | 1.92e7 | 2.13e7 | inactive
Ir40a (GeneID 35449) | DRSC03733 | 3.85e7 | 5.05e7 | 2.03e7 | 2.10e7 | inactive
Hus1-like (GeneID 40598) | DRSC12353 | 2.94e7 | 4.76e7 | 1.52e7 | 2.15e7 | inactive
CG9948 (GeneID 38757) | DRSC11104 | 4.77e7 | 3.16e7 | 3.05e7 | 1.34e7 | inactive
